The supplement of paper PMC12823440, “Inhibitors supercharge kinase turnover through native proteolytic circuits” (Nature, 2025)
Counter-ions that a name gives are not always drawn. This is one part of the list. The calls rarely recur for the same compound in another form.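 In K562 cells expressing nanoluciferase-fused kinases, luminescence was recorded at 4 h intervals between 2 and 18 h, normalized as percent of control with DMSO at 100% and a positive control at 0%. A significant (2 sigma) signal drop marks a time point as decreased. The authors' rule for a hit is not shown and takes in more than the number of time points.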

Sequences of proteins named here, by UniProt entry; tags and fusion partners are left off. A change or cut given only in a name is not applied to a line headed by its entry.
UniProt Q9Y616: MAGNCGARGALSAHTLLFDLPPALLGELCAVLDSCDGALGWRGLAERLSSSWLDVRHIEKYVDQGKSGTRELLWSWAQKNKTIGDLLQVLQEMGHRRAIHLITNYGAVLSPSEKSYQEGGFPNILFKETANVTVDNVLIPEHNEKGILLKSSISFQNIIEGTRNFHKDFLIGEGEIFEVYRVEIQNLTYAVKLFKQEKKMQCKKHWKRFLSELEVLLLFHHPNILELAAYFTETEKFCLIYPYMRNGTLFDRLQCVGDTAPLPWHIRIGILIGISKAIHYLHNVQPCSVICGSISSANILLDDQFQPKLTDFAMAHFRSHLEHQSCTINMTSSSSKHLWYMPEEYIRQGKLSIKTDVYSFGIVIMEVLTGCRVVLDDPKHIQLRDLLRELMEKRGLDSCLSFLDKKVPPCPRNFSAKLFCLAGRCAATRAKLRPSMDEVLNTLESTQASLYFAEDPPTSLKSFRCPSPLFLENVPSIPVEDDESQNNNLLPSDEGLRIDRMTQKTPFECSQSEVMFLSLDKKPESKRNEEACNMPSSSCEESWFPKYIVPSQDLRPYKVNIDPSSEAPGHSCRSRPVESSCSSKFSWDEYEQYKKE
UniProt P23458: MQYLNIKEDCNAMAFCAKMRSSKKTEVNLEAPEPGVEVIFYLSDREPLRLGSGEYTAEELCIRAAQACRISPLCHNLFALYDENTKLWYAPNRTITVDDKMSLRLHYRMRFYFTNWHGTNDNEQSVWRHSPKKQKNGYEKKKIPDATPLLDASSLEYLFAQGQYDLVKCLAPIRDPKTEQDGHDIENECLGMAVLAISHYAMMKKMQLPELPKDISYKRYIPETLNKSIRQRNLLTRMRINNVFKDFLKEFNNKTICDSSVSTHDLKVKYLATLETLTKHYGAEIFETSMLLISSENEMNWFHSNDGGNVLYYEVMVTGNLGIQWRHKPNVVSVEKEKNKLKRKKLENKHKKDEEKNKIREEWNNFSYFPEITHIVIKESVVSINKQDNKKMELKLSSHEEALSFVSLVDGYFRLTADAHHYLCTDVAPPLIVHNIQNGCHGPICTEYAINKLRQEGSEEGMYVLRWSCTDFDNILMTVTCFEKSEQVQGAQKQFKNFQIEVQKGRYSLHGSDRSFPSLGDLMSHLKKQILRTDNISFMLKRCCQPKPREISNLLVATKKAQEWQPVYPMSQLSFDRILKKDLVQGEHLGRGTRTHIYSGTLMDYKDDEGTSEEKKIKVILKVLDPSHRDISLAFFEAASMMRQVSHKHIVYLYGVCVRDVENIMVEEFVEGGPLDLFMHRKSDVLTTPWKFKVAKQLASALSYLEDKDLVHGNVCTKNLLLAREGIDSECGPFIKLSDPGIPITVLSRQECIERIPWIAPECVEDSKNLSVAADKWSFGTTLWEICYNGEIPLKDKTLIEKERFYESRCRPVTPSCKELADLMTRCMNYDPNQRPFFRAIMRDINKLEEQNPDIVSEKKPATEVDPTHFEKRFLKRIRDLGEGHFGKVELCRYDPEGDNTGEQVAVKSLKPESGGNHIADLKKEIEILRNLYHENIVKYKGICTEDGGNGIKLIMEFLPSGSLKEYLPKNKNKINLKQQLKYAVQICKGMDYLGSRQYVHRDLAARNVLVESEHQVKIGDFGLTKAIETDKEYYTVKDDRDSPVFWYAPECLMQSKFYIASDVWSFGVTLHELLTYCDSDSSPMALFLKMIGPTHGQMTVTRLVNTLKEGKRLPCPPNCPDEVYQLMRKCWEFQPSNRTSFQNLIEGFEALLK
UniProt P06239: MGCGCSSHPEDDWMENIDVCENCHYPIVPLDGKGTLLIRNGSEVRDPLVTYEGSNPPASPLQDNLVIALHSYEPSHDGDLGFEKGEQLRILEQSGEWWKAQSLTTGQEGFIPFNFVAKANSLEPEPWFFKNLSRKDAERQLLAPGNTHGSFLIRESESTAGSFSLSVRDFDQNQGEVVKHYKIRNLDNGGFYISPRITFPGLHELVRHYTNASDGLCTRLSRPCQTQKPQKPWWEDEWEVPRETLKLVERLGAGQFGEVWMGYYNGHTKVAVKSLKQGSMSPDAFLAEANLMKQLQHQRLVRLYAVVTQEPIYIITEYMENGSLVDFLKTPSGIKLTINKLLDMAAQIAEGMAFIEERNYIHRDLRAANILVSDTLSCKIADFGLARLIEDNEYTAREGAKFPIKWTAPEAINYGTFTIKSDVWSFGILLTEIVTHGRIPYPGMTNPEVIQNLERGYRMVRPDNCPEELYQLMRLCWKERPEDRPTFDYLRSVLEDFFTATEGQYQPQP
UniProt P53667: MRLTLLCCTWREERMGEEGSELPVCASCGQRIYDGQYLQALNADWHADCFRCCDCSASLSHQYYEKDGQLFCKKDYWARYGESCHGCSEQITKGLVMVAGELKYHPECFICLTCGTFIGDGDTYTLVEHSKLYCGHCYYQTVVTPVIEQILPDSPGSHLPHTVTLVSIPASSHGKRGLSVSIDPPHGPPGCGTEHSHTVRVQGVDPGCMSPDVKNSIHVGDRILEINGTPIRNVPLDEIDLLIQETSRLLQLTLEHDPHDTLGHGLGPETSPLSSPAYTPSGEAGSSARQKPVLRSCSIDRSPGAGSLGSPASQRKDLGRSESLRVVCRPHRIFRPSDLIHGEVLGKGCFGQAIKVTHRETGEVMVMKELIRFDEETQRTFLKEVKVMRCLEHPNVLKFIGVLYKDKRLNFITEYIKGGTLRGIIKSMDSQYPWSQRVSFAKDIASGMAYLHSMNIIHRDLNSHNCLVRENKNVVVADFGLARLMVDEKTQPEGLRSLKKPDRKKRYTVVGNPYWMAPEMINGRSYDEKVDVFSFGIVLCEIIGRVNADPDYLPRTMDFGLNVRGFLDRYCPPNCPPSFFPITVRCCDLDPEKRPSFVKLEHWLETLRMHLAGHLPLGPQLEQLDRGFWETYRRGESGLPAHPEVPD
UniProt P53671: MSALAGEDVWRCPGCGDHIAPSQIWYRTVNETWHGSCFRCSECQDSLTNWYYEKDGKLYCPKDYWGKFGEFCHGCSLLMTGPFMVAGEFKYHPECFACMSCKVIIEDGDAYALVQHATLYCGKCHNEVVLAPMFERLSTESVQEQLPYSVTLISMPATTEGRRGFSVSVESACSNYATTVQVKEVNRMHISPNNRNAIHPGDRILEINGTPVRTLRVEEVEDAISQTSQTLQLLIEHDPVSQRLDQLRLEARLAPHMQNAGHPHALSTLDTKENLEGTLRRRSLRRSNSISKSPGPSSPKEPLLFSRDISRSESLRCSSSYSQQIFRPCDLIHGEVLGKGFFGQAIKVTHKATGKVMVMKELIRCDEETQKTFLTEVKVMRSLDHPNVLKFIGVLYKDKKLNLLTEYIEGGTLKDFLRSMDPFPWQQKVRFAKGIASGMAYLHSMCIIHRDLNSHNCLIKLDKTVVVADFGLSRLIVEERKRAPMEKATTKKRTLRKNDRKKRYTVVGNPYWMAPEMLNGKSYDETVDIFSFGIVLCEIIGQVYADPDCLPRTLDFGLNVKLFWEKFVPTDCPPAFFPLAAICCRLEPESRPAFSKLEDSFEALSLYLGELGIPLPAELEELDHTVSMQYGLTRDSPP
UniProt Q8IWU2: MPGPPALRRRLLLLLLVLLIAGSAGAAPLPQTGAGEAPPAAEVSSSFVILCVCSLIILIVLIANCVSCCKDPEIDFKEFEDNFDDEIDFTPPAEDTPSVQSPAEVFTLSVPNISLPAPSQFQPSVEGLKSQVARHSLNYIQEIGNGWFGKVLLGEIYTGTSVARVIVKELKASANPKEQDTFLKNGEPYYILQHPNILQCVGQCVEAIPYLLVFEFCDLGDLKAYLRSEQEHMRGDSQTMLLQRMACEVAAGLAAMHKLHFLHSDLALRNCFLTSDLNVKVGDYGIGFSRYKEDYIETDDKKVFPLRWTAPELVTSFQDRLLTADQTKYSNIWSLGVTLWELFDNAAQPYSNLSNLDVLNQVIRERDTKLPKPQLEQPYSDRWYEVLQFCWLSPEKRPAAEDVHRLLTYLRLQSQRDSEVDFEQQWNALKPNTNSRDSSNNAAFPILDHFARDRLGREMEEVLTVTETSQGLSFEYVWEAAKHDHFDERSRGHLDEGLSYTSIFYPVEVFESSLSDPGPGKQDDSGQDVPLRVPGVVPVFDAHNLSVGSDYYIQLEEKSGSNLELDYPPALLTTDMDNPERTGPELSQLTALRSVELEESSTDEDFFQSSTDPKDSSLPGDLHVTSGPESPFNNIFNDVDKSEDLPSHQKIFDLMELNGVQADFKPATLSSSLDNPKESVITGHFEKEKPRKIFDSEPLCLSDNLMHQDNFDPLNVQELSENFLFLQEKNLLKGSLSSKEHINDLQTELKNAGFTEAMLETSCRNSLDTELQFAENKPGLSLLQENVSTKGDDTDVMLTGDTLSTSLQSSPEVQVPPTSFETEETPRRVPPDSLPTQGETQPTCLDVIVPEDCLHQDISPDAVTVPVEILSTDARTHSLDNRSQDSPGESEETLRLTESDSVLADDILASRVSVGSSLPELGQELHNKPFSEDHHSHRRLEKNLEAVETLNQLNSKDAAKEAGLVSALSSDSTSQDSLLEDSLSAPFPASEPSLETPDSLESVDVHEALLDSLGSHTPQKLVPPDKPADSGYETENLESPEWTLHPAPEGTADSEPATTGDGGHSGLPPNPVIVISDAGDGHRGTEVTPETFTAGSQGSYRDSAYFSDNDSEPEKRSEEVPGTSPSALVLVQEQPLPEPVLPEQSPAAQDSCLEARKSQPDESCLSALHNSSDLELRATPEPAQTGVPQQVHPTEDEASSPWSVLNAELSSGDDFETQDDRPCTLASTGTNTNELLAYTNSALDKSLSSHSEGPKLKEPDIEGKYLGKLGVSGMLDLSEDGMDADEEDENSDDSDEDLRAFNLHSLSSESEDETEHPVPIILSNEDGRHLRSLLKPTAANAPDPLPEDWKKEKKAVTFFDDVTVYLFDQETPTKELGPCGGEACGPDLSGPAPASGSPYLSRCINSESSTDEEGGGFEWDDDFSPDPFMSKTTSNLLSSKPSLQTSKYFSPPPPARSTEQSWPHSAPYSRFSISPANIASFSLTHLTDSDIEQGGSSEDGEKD
UniProt P07948: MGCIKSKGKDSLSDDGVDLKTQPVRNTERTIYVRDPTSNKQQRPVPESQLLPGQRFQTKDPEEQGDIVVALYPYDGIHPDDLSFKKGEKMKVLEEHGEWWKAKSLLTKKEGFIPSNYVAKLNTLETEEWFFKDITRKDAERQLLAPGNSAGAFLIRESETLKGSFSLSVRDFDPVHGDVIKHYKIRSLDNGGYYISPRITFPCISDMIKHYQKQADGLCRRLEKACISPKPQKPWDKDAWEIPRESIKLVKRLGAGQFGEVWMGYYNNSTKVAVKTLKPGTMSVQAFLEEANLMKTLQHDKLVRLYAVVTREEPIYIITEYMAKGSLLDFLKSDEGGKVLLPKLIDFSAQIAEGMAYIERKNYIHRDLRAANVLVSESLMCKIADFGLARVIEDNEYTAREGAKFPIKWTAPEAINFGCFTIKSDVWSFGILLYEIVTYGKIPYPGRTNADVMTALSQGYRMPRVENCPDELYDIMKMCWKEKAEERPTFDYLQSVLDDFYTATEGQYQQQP
UniProt Q12851: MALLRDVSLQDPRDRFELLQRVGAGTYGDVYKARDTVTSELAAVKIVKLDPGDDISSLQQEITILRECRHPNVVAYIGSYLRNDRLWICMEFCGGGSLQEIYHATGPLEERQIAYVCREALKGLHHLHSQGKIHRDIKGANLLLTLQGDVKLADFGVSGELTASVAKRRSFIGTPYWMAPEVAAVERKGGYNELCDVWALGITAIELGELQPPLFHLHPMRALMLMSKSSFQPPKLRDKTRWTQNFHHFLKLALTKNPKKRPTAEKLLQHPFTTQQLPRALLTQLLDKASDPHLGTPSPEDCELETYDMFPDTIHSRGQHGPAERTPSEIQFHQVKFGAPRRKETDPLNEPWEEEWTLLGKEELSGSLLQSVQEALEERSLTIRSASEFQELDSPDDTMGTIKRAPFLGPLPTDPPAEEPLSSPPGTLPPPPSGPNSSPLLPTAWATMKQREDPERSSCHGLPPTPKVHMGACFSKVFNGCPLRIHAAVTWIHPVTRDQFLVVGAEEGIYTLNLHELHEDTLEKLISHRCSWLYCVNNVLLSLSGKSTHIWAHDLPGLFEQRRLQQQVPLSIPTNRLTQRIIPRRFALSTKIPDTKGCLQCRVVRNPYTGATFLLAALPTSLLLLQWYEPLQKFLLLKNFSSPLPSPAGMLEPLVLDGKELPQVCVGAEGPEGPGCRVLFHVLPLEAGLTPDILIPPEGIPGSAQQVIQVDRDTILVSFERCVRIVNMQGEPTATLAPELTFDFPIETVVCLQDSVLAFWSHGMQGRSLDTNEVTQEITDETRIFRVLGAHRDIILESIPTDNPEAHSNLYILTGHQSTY

How the values were obtained:
Test in all cases: kinase-Nluc reporter destabilization hit call (1 = scored as downregulated) (binary); higher = compound decreases kinase abundance
Conditions in all cases: K562; 2-18 h
IRAK3 = IRAK3 (UniProt Q9Y616)
JAK1 = JAK1 (UniProt P23458)
LCK = LCK (UniProt P06239)
LIMK1 = LIMK1 (UniProt P53667)
LIMK2 = LIMK2 (UniProt P53671)
LMTK2 = LMTK2 (UniProt Q8IWU2)
LYN = LYN (UniProt P07948)
MAP2K1 = MAP2K1 (UniProt Q02750)
MAP2K2 = MAP2K2 (UniProt P36507)
MAP4K2 = MAP4K2 (UniProt Q12851)

Measured: kinase-Nluc reporter destabilization hit call

[O-][n+]1cccc(-c2nc3c(Cl)cccc3cc2[C@@H](Nc2ncnc3cccnc23)C(F)(F)F)c1 [Seletalisib] (10 µM)
inactive: IRAK3 = 0 | JAK1 = 0 | LCK 0 | LIMK1 = 0 | LIMK2 = 0 | LMTK2 = 0 | LYN 0 | MAP2K1 = 0 | MAP2K2 = 0 | MAP4K2 = 0

CC(C)N(C)c1nc2cc(C(=O)O)ccc2nc1-c1ccc(F)cc1 (10 µM)
inactive: IRAK3 = 0 | JAK1 = 0 | LCK 0 | LIMK1 = 0 | LIMK2 = 0 | LMTK2 = 0 | LYN 0 | MAP2K1 = 0 | MAP2K2 = 0 | MAP4K2 = 0

CN(CC(=O)N(Cc1ccc(C2CCCCC2)cc1)c1ccc(C(=O)O)c(O)c1)S(=O)(=O)c1c(F)c(F)c(F)c(F)c1F (2.5 µM)
inactive: IRAK3 = 0 | JAK1 = 0 | LCK 0 | LIMK1 = 0 | LIMK2 = 0 | LMTK2 = 0 | LYN 0 | MAP2K1 = 0 | MAP2K2 = 0 | MAP4K2 = 0

CCOc1nc(Nc2ccc(C(=O)N3CCOCC3)cc2OC)nc2[nH]ccc12 [LRRK2 inhibitor 1] (2.5 µM)
inactive: IRAK3 = 0 | JAK1 = 0 | LCK 0 | LIMK1 = 0 | LIMK2 = 0 | LMTK2 = 0 | LYN 0 | MAP2K1 = 0 | MAP2K2 = 0 | MAP4K2 = 0

COc1ccccc1/C=C1\C(=O)Nc2ccccc21 (10 µM)
inactive: IRAK3 = 0 | JAK1 = 0 | LCK 0 | LIMK1 = 0 | LIMK2 = 0 | LMTK2 = 0 | LYN 0 | MAP2K1 = 0 | MAP2K2 = 0 | MAP4K2 = 0

COc1cc2ncnc(Nc3ccc(NC(=O)c4ccccc4)cc3)c2cc1OC [Aurora kinase inhibitor-2] (2.5 µM)
inactive: IRAK3 = 0 | JAK1 = 0 | LCK 0 | LIMK1 = 0 | LIMK2 = 0 | LMTK2 = 0 | LYN 0 | MAP2K1 = 0 | MAP2K2 = 0 | MAP4K2 = 0

Cc1cc2cc(Oc3ccnc(Nc4cccc(CS(=O)(=O)NCCN(C)C)c4)n3)ccc2[nH]1 [Sulfatinib] (10 µM)
inactive: IRAK3 = 0 | JAK1 = 0 | LCK 0 | LIMK1 = 0 | LIMK2 = 0 | LMTK2 = 0 | LYN 0 | MAP2K1 = 0 | MAP2K2 = 0 | MAP4K2 = 0

COC(=O)[C@@]1(C)CC[C@]2(C(=O)O)CC[C@]3(C)C(=CC[C@@H]4[C@@]5(C)C[C@H](O)[C@H](O[C@@H]6OC[C@@H](O[C@@H]7O[C@H](CO)[C@@H](O)[C@H](O)[C@H]7O)[C@H](O)[C@H]6O)[C@@](C)(CO)[C@@H]5CC[C@]43C)[C@@H]2C1 [Esculentoside A] (10 µM)
inactive: IRAK3 = 0 | JAK1 = 0 | LCK 0 | LIMK1 = 0 | LIMK2 = 0 | LMTK2 = 0 | LYN 0 | MAP2K1 = 0 | MAP2K2 = 0 | MAP4K2 = 0

CNC(=O)c1ccc(-c2cnc3cnc(-c4ccccc4)cn23)cc1 (10 µM)
inactive: IRAK3 = 0 | JAK1 = 0 | LCK 0 | LIMK1 = 0 | LIMK2 = 0 | LMTK2 = 0 | LYN 0 | MAP2K1 = 0 | MAP2K2 = 0 | MAP4K2 = 0

CN(C)Cc1cccc(N=C(c2ccccc2)c2c(O)[nH]c3cc(C(=O)N(C)C)ccc23)c1 (10 µM)
inactive: IRAK3 = 0 | JAK1 = 0 | LCK 0 | LIMK1 = 0 | LIMK2 = 0 | LMTK2 = 0 | LYN 0 | MAP2K1 = 0 | MAP2K2 = 0 | MAP4K2 = 0

COc1ccc(-n2c(C)c([N+](=O)[O-])c3ccc(O)cc32)cc1 (10 µM)
inactive: IRAK3 = 0 | JAK1 = 0 | LCK 0 | LIMK1 = 0 | LIMK2 = 0 | LMTK2 = 0 | LYN 0 | MAP2K1 = 0 | MAP2K2 = 0 | MAP4K2 = 0

CC(C)(C)Cn1c(N)nc2ccc(-c3[nH]c(C(C)(C)C)nc3-c3ccc(F)cc3)nc21 [Ralimetinib dimesylate] (2.5 µM)
inactive: IRAK3 = 0 | JAK1 = 0 | LCK 0 | LIMK1 = 0 | LIMK2 = 0 | LMTK2 = 0 | LYN 0 | MAP2K1 = 0 | MAP2K2 = 0 | MAP4K2 = 0

Nc1ncc(-c2ccc(C(=O)N3CCNCC3)cc2)nc1-c1ccc(C(F)(F)F)cc1 (10 µM)
inactive: IRAK3 = 0 | JAK1 = 0 | LCK 0 | LIMK1 = 0 | LIMK2 = 0 | LMTK2 = 0 | LYN 0 | MAP2K1 = 0 | MAP2K2 = 0 | MAP4K2 = 0

Cc1cnc(Nc2ccc(N3CCN(C)CC3)cc2)nc1Nc1cccc(S(=O)(=O)NC(C)(C)C)c1 (2.5 µM)
inactive: IRAK3 = 0 | JAK1 = 0 | LCK 0 | LIMK1 = 0 | LIMK2 = 0 | LMTK2 = 0 | LYN 0 | MAP2K1 = 0 | MAP2K2 = 0 | MAP4K2 = 0

CCN1/C(=C/C(C)=O)Sc2ccc(OC)cc21 (10 µM)
inactive: IRAK3 = 0 | JAK1 = 0 | LCK 0 | LIMK1 = 0 | LIMK2 = 0 | LMTK2 = 0 | LYN 0 | MAP2K1 = 0 | MAP2K2 = 0 | MAP4K2 = 0

CCCNC(=O)c1cn2ncnc(Nc3cc(C(=O)NC4CC4)ccc3C)c2c1C (10 µM)
inactive: IRAK3 = 0 | JAK1 = 0 | LCK 0 | LIMK1 = 0 | LIMK2 = 0 | LMTK2 = 0 | LYN 0 | MAP2K1 = 0 | MAP2K2 = 0 | MAP4K2 = 0

C[C@@H]1COCCN1c1cc(C2([S@](C)(=N)=O)CC2)nc(-c2cc[nH]c3nccc2-3)n1 [Ceralasertib] (2.5 µM)
inactive: IRAK3 = 0 | JAK1 = 0 | LCK 0 | LIMK1 = 0 | LIMK2 = 0 | LMTK2 = 0 | LYN 0 | MAP2K1 = 0 | MAP2K2 = 0 | MAP4K2 = 0

N=C(N)NC(=N)NCCc1ccccc1 [Phenformin (hydrochloride)] (10 µM)
inactive: IRAK3 = 0 | JAK1 = 0 | LCK 0 | LIMK1 = 0 | LIMK2 = 0 | LMTK2 = 0 | LYN 0 | MAP2K1 = 0 | MAP2K2 = 0 | MAP4K2 = 0

Cc1ccc(-c2ccc3c(ccc4sc5c(c43)NC[C@@H](C)NC5=O)n2)cn1 (10 µM)
inactive: IRAK3 = 0 | JAK1 = 0 | LCK 0 | LIMK1 = 0 | LIMK2 = 0 | LMTK2 = 0 | LYN 0 | MAP2K1 = 0 | MAP2K2 = 0 | MAP4K2 = 0

COc1ccc2c(c1)c(C1=C(c3c[nH]c4ccccc34)C(=O)NC1=O)cn2CCCN(C)C (10 µM)
inactive: IRAK3 = 0 | JAK1 = 0 | LCK 0 | LIMK1 = 0 | LIMK2 = 0 | LMTK2 = 0 | LYN 0 | MAP2K1 = 0 | MAP2K2 = 0 | MAP4K2 = 0

Cc1cc(C(C)Nc2ccccc2)c2nc(N3CCOCC3)cc(=O)n2c1 (stereo not given) (10 µM)
inactive: IRAK3 = 0 | JAK1 = 0 | LCK 0 | LIMK1 = 0 | LIMK2 = 0 | LMTK2 = 0 | LYN 0 | MAP2K1 = 0 | MAP2K2 = 0 | MAP4K2 = 0

Cc1ccc(-c2ncn(-c3ccc(Nc4nccc(-c5cccc(N6CCOCC6)c5)n4)cc3)n2)cn1 (10 µM)
inactive: IRAK3 = 0 | JAK1 = 0 | LCK 0 | LIMK1 = 0 | LIMK2 = 0 | LMTK2 = 0 | LYN 0 | MAP2K1 = 0 | MAP2K2 = 0 | MAP4K2 = 0

CC[C@H](C)[C@H](NC(=O)[C@H](CCC(=O)O)NC(=O)[C@H](CCCN=C(N)N)NC(=O)[C@H](CCCN=C(N)N)NC(=O)[C@@H](N)CCCCN)C(=O)N[C@@H](CC(C)C)C(=O)N[C@@H](CO)C(=O)N[C@@H](CCCN=C(N)N)C(=O)N[C@@H](CCCN=C(N)N)C(=O)N1CCC[C@H]1C(=O)N[C@@H](CO)C(=O)N[C@@H](Cc1ccc(O)cc1)C(=O)N[C@@H](CCCN=C(N)N)C(=O)O [CREBtide] (10 µM)
inactive: IRAK3 = 0 | JAK1 = 0 | LCK 0 | LIMK1 = 0 | LIMK2 = 0 | LMTK2 = 0 | LYN 0 | MAP2K1 = 0 | MAP2K2 = 0 | MAP4K2 = 0

Cn1cc(-c2ccc3nnc(C(F)(F)c4ccc5ncccc5c4)n3n2)cn1 (10 µM)
inactive: IRAK3 = 0 | JAK1 = 0 | LCK 0 | LIMK1 = 0 | LIMK2 = 0 | LMTK2 = 0 | LYN 0 | MAP2K1 = 0 | MAP2K2 = 0 | MAP4K2 = 0

CC1(N)CCN(c2cnc3c(-c4cccc(Cl)c4Cl)[nH]nc3n2)CC1 (2.5 µM)
inactive: IRAK3 = 0 | JAK1 = 0 | LCK 0 | LIMK1 = 0 | LIMK2 = 0 | LMTK2 = 0 | LYN 0 | MAP2K1 = 0 | MAP2K2 = 0 | MAP4K2 = 0

Two compounds drawn at random from the list so far:
CN(CC(=O)N(Cc1ccc(C2CCCCC2)cc1)c1ccc(C(=O)O)c(O)c1)S(=O)(=O)c1c(F)c(F)c(F)c(F)c1F (2.5 µM)
inactive: IRAK3 = 0 | JAK1 = 0 | LCK 0 | LIMK1 = 0 | LIMK2 = 0 | LMTK2 = 0 | LYN 0 | MAP2K1 = 0 | MAP2K2 = 0 | MAP4K2 = 0

N=C(N)NC(=N)NCCc1ccccc1 [Phenformin (hydrochloride)] (10 µM)
inactive: IRAK3 = 0 | JAK1 = 0 | LCK 0 | LIMK1 = 0 | LIMK2 = 0 | LMTK2 = 0 | LYN 0 | MAP2K1 = 0 | MAP2K2 = 0 | MAP4K2 = 0

Next records

CCCC(=O)Nc1nc2c(ncn2[C@@H]2O[C@@H]3COP(=O)(O)O[C@H]3[C@H]2OC(=O)CCC)c(=O)[nH]1 [Dibutyryl-cGMP (sodium)] (10 µM)
inactive: IRAK3 = 0 | JAK1 = 0 | LCK 0 | LIMK1 = 0 | LIMK2 = 0 | LMTK2 = 0 | LYN 0 | MAP2K1 = 0 | MAP2K2 = 0 | MAP4K2 = 0

CSc1ccc(CN2CCCC(Nc3ccc4[nH]ncc4c3)C2)cc1 (stereo not given) [Rho-Kinase-IN-1] (10 µM)
inactive: IRAK3 = 0 | JAK1 = 0 | LCK 0 | LIMK1 = 0 | LIMK2 = 0 | LMTK2 = 0 | LYN 0 | MAP2K1 = 0 | MAP2K2 = 0 | MAP4K2 = 0

NC(=O)c1ccc(-c2cnn3ccc(NCc4cccnc4)nc23)cc1 (2.5 µM)
inactive: IRAK3 = 0 | JAK1 = 0 | LCK 0 | LIMK1 = 0 | LIMK2 = 0 | LMTK2 = 0 | LYN 0 | MAP2K1 = 0 | MAP2K2 = 0 | MAP4K2 = 0
